{"source": "patent US6699677", "molecular_target": "T1, human CCR10 (CCX CKR) with N-terminal FLAG epitope, stably expressed on HEK293 cells (human), Q9NPB9", "T1 chain": "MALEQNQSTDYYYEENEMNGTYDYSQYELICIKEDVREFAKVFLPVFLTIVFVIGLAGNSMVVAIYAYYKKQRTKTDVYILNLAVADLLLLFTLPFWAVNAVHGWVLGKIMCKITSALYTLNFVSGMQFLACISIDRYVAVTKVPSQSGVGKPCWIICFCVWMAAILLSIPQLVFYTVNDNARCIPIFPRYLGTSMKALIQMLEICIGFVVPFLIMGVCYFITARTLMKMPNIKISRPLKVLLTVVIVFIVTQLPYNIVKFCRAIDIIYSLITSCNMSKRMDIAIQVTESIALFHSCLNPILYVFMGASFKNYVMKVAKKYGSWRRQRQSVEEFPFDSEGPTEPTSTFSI", "assay": "summary of Example 1; assay for this ligand not described", "details": "remark: other sources report otherwise", "note": "These are yes or no findings as the source states them, for the method shown. Some entries that bind do so weakly or less than the wild type. Where a sequence is shown, tags or fusion partners need not be part of it."}
{"binder": "BLC, O43927 23-109 (ligand) VLEVYYTSLRCRCVQESSVFIPRRFIDRIQILPRGNGCPRKEIIVWKKNKSIVCVDPQAEWIQRMMEVLRKRSSSTLPVPVFKRKIP", "values": [{"measurement": "binding", "result": "binds"}]}
